Experimental data: doi:10.1101/2025.01.17.633582
No constants are given. Whether binding was seen depends on the method and setting. Binding seen in cells or lysates may run through a third protein. Some entries that bind do so weakly or less than the wild type. For some assays here: Tags and fused reporters may be left off the sequences shown.

Chains of the proteins cited; added tags and fusions are not shown.
UniProt P50549, whole entry: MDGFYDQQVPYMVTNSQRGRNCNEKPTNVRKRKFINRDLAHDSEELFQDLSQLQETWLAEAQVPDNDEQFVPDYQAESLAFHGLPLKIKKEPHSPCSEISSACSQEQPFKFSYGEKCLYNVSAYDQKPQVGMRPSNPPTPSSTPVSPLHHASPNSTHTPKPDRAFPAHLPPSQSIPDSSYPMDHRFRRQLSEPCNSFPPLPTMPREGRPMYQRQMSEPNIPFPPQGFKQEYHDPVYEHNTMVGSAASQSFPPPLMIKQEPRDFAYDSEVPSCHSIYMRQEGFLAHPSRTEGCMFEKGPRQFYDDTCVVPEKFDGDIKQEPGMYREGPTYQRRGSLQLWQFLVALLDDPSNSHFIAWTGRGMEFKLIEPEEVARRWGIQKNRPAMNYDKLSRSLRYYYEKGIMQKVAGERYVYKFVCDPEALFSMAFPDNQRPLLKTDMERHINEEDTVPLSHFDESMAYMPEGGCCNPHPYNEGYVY
UniProt P43268, whole entry: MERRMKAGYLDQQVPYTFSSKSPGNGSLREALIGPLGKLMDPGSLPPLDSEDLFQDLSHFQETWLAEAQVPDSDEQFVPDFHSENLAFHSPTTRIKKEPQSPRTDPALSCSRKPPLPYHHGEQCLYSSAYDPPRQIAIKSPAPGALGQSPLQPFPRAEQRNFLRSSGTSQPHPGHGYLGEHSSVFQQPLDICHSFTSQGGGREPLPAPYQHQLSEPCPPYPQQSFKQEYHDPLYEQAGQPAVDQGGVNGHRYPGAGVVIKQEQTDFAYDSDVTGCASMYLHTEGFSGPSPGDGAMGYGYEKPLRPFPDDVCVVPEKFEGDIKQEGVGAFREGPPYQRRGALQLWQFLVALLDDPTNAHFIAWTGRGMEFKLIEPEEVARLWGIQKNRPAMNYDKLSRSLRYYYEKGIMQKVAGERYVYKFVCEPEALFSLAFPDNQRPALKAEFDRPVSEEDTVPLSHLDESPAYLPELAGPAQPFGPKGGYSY
UniProt P41161, whole entry: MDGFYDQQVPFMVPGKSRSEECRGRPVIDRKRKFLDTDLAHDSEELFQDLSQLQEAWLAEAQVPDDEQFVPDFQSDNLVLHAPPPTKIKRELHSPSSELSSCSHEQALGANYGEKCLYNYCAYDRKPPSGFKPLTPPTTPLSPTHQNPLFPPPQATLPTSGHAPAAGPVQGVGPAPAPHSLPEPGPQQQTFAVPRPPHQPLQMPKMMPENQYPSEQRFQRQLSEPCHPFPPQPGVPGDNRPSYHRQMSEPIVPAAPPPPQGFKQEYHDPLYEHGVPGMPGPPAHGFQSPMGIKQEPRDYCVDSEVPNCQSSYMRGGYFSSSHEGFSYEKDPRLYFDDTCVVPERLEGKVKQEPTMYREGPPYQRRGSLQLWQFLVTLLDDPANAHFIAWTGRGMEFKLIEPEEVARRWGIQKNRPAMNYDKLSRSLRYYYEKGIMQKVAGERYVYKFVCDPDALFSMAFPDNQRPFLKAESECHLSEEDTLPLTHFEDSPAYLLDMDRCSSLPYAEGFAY
UniProt P04150, whole entry: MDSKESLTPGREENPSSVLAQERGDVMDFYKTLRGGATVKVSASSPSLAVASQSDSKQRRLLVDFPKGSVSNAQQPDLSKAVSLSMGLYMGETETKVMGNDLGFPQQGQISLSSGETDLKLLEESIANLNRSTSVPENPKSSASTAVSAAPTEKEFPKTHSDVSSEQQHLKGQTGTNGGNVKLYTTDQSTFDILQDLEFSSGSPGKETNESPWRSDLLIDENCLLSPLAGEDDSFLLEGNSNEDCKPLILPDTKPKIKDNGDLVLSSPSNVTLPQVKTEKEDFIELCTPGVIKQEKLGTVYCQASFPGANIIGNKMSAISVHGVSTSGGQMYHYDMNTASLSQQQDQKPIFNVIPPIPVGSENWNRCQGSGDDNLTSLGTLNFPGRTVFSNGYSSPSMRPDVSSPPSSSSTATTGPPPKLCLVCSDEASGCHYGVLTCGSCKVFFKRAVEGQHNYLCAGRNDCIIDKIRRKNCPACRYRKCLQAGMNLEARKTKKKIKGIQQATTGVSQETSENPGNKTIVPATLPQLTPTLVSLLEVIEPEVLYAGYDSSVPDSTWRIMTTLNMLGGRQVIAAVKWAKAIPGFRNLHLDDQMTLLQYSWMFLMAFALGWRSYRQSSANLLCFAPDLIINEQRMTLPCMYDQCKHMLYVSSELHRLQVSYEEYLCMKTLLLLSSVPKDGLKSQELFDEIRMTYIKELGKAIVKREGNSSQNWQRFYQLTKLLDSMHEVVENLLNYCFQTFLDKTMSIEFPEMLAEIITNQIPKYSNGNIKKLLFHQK

How the values were obtained:
[1] = target: T1, full-length HA-ERG (HA-tagged ERG-WT) (UniProt P11308); test: co-IP
T1 sequence: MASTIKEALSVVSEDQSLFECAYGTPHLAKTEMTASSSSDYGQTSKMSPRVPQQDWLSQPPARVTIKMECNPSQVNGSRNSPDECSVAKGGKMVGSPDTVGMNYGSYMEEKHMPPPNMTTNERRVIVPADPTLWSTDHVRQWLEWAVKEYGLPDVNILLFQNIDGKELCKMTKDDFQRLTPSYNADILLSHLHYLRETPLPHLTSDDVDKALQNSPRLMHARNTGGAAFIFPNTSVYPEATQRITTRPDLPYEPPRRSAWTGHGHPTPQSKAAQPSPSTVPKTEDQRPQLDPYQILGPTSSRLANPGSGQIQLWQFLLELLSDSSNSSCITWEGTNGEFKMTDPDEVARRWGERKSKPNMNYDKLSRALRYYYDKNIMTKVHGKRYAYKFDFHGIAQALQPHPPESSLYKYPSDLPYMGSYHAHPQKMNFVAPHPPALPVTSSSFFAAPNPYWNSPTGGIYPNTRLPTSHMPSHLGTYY

[2] = target: T2, Gluc1-ERG (ERG fused to the amino-terminal fragment of Gaussia luciferase) (UniProt P11308); test: split reporter
T2 sequence: T1 sequence

[3] = target: Gluc1-ETV1 (UniProt P50549); test: split reporter
[4] = target: Gluc1-ETV4 (UniProt P43268); test: split reporter
[5] = target: Gluc1-ETV5 (UniProt P41161); test: split reporter
[6] = target: T3, ERG ectopically expressed in HEK293T cells (plasmid encoding ERG) (UniProt P11308); test: co-IP
T3 sequence: T1 sequence

[7] = target: ETV4, endogenous in PC3 cells (human (endogenous in PC3)) (UniProt P43268); test: co-IP

Measured: binding

GR-Gluc2 (full-length glucocorticoid receptor fused to the carboxyl-terminal fragment of Gaussia luciferase) (from UniProt P04150 1-777)
not listed: [6] | [7]
binds: all other assays above

endogenous glucocorticoid receptor (GR) (from UniProt P04150 1-777)
binds: [6] | [7] | [1]
